The list shows a part of the results.
compound: C1=CC=C2C(=C1)C3=NNC4=CC=CC(=C43)C2=O; experiment: log2 fold change, soluble protein after heating vs DMSO (PISA); higher = thermal stabilisation; K562 lysate, 10 uM; active = over 0.2 and 3.5 SD of the protein, either way, in both replicates (recomputed)
How it was run: (§1)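 Following dounce homogenisation of K562 pellets in PBS pH 7.4 with 1 mM MgCl2, crude extract at 1 mg/mL protein was incubated for 30 min with 10 μM compound. Aliquots were then heated for 3 min over 48°C-58°C and pooled, NP-40 was added to 0.5% at 4°C, and soluble protein was recovered as the supernatant at 21,000xg for 90 min. Channel-sum-equalised TMTpro 16plex LC-MS/MS quantified this protein. Each value, from duplicates, is a log-two fold change in thermal stability relative to solvent controls.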

By UniProt entry, the sequences of proteins in these tests, tags left out. Where a name states a change or a piece, a line headed by the entry shows the natural chain unless it says otherwise.
UniProt P07737, whole entry, looked up: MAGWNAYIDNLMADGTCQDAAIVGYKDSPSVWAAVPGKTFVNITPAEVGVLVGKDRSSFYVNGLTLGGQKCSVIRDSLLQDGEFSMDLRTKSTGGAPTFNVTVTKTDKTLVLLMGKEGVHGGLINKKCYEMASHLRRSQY
UniProt Q16822, whole entry, looked up: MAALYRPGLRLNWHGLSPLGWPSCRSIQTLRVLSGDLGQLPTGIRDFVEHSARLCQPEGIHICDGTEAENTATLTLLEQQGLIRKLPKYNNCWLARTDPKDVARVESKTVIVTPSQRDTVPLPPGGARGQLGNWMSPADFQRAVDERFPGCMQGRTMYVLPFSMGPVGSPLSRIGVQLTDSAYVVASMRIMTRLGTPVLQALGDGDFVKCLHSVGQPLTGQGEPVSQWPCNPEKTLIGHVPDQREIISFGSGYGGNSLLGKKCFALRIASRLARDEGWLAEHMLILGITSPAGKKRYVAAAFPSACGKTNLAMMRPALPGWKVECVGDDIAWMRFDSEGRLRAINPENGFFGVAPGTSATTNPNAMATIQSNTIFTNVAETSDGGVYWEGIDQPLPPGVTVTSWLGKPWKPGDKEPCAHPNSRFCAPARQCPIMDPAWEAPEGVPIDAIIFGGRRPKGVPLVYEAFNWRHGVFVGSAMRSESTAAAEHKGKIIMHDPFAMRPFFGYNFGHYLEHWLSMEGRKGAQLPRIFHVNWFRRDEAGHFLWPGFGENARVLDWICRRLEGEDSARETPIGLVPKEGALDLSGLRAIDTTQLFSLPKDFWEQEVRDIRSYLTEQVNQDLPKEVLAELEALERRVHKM
UniProt O60825: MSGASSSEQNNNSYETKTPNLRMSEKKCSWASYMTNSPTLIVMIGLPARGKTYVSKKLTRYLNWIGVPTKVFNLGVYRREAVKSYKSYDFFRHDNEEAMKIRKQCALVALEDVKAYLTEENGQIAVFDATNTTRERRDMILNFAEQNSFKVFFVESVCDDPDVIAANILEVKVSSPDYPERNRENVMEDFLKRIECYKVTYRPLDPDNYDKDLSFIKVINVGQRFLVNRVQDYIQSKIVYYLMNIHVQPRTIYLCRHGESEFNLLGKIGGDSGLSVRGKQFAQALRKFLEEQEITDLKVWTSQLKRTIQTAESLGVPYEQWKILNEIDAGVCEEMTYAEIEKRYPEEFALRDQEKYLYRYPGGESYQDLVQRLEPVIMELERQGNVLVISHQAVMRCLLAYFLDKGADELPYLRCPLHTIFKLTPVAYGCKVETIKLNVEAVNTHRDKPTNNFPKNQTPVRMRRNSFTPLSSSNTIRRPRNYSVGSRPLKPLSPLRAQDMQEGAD
UniProt Q15366, whole entry, looked up: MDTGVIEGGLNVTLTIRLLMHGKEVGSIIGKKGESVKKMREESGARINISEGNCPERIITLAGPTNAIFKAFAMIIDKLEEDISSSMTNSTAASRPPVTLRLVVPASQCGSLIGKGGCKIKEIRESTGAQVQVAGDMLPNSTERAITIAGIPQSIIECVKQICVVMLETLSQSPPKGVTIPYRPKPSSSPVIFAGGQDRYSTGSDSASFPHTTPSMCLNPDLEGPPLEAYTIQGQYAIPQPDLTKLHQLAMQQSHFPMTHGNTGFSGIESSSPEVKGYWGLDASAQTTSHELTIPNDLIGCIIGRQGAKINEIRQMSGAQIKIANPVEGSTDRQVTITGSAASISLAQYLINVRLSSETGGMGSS
UniProt Q96GD0: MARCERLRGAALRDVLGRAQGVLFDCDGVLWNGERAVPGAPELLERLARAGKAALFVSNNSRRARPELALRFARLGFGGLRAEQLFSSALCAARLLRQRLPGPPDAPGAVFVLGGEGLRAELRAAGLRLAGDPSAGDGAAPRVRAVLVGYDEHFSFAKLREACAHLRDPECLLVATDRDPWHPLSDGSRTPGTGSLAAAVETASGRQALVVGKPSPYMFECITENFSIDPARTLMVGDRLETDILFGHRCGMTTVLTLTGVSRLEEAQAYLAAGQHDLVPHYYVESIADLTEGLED
UniProt P61457: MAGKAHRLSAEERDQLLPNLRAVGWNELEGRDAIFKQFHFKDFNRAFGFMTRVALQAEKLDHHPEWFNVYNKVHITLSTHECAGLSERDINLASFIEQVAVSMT
UniProt Q53EL6: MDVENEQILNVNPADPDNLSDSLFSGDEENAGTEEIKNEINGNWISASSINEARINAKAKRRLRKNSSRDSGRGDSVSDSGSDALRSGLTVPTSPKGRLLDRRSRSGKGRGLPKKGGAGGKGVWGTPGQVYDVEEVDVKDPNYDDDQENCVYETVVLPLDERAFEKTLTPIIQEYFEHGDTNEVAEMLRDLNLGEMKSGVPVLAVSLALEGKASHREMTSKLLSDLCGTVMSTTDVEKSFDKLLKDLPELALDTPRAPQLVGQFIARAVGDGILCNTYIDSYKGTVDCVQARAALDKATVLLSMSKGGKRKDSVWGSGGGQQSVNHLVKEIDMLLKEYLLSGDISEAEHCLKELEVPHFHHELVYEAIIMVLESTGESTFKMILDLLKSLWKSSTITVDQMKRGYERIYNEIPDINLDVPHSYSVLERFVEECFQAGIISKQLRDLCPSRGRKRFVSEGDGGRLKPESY
UniProt Q86SE9: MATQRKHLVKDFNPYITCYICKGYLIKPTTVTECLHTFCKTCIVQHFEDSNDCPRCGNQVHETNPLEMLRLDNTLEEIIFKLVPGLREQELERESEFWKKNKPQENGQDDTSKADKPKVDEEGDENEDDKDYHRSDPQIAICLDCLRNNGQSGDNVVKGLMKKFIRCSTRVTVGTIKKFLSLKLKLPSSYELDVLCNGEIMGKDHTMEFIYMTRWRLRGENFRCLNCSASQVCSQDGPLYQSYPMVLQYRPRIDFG
UniProt Q86TB9: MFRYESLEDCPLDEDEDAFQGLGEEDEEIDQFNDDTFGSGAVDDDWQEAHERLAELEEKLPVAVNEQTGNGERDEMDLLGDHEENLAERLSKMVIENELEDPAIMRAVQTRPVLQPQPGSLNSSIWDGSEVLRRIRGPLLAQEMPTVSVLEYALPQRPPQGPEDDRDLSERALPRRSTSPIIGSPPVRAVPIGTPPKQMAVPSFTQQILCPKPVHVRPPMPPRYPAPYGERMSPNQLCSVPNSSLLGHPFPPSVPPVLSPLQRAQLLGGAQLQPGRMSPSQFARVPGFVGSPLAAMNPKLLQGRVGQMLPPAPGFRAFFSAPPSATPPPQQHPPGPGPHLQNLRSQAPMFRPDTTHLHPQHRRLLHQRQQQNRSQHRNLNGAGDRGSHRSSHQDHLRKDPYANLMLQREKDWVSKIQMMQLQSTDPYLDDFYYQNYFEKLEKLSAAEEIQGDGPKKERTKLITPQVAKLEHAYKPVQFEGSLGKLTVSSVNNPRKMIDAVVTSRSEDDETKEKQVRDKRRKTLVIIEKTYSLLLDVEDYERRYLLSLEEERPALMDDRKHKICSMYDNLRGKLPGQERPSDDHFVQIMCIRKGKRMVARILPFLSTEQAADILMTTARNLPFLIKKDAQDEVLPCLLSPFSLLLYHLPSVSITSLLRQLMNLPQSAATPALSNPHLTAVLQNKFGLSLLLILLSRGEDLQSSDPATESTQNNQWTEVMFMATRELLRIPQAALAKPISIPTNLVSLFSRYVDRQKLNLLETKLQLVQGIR
UniProt Q9BVG4: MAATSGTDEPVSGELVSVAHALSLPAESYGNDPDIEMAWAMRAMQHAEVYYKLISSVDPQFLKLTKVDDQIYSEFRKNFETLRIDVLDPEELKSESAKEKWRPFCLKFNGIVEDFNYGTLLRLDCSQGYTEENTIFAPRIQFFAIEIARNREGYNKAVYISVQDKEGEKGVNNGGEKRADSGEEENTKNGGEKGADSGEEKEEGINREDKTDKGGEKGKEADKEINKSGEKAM
UniProt P0DJ07: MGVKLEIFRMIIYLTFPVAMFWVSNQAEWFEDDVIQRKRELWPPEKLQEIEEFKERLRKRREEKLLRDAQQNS
UniProt H7BZJ3: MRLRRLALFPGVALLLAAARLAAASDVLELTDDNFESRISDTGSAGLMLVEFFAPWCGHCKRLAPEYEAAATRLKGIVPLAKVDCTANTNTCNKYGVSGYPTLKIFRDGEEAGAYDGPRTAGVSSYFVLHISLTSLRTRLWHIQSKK
UniProt P11177, whole entry, looked up: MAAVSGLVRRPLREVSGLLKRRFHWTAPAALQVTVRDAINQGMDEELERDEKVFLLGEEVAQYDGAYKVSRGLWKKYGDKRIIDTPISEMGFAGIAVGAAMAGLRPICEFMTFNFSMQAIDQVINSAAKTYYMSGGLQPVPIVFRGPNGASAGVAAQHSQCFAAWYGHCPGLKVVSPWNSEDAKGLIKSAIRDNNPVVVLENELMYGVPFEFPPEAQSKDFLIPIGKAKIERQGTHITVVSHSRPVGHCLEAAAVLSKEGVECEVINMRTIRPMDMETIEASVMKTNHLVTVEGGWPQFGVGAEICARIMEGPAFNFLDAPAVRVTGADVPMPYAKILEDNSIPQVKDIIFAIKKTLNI
UniProt Q7L3T8: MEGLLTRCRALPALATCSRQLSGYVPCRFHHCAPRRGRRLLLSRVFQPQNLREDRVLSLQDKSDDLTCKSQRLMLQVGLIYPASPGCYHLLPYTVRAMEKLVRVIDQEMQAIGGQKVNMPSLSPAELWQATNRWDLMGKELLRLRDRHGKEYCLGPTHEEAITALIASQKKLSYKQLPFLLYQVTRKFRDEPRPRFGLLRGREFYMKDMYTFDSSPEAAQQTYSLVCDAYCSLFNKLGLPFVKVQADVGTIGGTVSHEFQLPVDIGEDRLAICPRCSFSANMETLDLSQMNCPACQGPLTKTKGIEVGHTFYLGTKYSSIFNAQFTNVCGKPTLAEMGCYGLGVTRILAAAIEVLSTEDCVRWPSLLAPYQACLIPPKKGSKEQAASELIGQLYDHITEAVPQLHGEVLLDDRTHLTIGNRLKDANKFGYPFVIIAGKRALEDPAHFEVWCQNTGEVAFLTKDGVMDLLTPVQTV
UniProt Q9Y5Y5: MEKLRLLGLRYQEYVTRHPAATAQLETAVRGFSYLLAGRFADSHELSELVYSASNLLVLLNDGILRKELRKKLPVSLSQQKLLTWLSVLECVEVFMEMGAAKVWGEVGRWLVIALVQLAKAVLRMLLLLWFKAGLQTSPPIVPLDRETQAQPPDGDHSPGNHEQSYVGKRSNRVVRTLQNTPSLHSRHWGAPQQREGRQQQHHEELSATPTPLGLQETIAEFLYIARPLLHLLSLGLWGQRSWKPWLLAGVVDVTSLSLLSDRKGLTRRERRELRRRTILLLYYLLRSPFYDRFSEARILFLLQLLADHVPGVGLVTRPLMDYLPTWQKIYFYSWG
UniProt O95453: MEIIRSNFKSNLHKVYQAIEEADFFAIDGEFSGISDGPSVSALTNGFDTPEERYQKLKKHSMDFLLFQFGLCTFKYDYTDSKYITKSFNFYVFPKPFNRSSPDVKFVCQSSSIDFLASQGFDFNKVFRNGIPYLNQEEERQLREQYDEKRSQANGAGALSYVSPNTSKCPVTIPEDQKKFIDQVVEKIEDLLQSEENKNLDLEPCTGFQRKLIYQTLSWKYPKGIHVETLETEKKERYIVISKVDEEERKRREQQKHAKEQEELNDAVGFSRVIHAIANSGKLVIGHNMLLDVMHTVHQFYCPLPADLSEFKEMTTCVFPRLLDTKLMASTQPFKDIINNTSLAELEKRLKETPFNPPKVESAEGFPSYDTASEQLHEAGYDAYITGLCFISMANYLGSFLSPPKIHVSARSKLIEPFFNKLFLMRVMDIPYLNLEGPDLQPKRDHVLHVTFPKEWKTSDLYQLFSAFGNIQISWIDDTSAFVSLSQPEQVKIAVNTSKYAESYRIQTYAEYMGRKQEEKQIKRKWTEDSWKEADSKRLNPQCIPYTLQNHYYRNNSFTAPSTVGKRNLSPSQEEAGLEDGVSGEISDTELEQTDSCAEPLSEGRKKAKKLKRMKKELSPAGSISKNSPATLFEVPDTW
UniProt Q16342: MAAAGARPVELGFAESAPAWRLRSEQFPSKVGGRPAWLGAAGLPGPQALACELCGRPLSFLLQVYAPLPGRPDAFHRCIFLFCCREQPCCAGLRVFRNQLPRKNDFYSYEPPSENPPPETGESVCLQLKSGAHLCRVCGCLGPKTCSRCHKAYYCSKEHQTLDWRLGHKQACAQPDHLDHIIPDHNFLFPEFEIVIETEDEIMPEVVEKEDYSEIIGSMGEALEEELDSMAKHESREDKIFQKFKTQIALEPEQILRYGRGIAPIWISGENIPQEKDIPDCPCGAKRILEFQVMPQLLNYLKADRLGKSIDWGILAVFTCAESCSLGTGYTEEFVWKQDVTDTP
UniProt Q15084: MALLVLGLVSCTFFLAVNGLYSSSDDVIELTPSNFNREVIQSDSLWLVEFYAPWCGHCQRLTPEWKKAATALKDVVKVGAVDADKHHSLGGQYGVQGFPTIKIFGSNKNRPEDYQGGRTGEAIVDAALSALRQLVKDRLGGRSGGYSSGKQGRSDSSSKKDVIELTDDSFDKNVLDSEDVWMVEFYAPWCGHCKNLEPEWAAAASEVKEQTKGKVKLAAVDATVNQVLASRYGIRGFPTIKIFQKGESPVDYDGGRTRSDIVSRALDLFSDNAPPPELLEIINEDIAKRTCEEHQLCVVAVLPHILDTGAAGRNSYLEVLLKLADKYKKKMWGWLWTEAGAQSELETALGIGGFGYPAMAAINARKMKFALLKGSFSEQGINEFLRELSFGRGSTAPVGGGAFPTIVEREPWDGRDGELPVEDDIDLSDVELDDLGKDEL

log2 fold change, inactive:
PFKL isoform 2 (UniProt P17858) -0.012, PFN1 (UniProt P07737) 0.015, PCK2 (UniProt Q16822) -0.018, PFKFB2 (UniProt O60825) 0.02, PCBP2 isoform 3 (UniProt Q15366) 0.042, PDXP (UniProt Q96GD0) 0.011, PCBD1 (UniProt P61457) 0.004, PDCD4 (UniProt Q53EL6) 0.014, PARP2 (UniProt Q9UGN5) 0.047, PCGF5 (UniProt Q86SE9) -0.182, PATL1 (UniProt Q86TB9) -0.039, PBDC1 (UniProt Q9BVG4) 0.029, PET100 (UniProt P0DJ07) 0.003, PDIA3 (UniProt H7BZJ3) -0.115, PDK1 (UniProt Q15118) 0.136, PECAM1 (UniProt P16284) 0.064, PCBP2 (UniProt H3BRU6) -0.15, PFKP (UniProt Q01813) 0.032, PCNA (UniProt P12004) 0.026, PARP9 (UniProt Q8IXQ6) -0.181, PDIA4 (UniProt P13667) 0, PFKFB4 (UniProt Q16877) -0.083, PDLIM4 (UniProt P50479) 0.012, PCBP1 (UniProt Q15365) 0.003, PDHB (UniProt P11177) -0.009, PARS2 (UniProt Q7L3T8) 0.051, PDS5A (UniProt Q29RF7) -0.038, PEX16 isoform 2 (UniProt Q9Y5Y5) 0.01, PARN (UniProt O95453) 0.005, PDCD2 (UniProt Q16342) -0.03, PDIA6 isoform 2 (UniProt Q15084) -0.015, PARP1 (UniProt P09874) 0.016, PEF1 (UniProt Q9UBV8) -0.021

compound: C1CCN(C1)C(=O)NC2=CC=CC(=C2)NC3=NC=C(C(=N3)NCCC4=CN=CN4)Br; experiment: as above
How it was run: as §1

log2 fold change, inactive:
PFKL isoform 2 (UniProt P17858) 0.002, PFN1 (UniProt P07737) -0.002, PCK2 (UniProt Q16822) 0.004, PFKFB2 (UniProt O60825) -0.004, PCBP2 isoform 3 (UniProt Q15366) 0.038, PDXP (UniProt Q96GD0) -0.006, PCBD1 (UniProt P61457) -0.02, PDCD4 (UniProt Q53EL6) -0.011, PARP2 (UniProt Q9UGN5) -0.096, PCGF5 (UniProt Q86SE9) 0.011, PATL1 (UniProt Q86TB9) -0.034, PBDC1 (UniProt Q9BVG4) -0.002, PET100 (UniProt P0DJ07) 0.034, PDIA3 (UniProt H7BZJ3) 0.015, PDK1 (UniProt Q15118) 0.478, PECAM1 (UniProt P16284) 0.003, PCBP2 (UniProt H3BRU6) -0.196, PFKP (UniProt Q01813) 0.033, PCNA (UniProt P12004) 0.021, PARP9 (UniProt Q8IXQ6) 0.047, PDIA4 (UniProt P13667) 0.04, PFKFB4 (UniProt Q16877) -0.003, PDLIM4 (UniProt P50479) -0.006, PCBP1 (UniProt Q15365) -0.013, PDHB (UniProt P11177) -0.018, PARS2 (UniProt Q7L3T8) 0.028, PDS5A (UniProt Q29RF7) -0.005, PEX16 isoform 2 (UniProt Q9Y5Y5) 0.119, PARN (UniProt O95453) -0.004, PDCD2 (UniProt Q16342) -0.06, PDIA6 isoform 2 (UniProt Q15084) -0.009, PARP1 (UniProt P09874) 0.013, PEF1 (UniProt Q9UBV8) -0.016

compound: C1CN(CCC1(CC2=CC=C(C=C2)Cl)N)C3=NC=NC4=C3C=CN4; experiment: as above
How it was run: as §1

log2 fold change, inactive:
PFKL isoform 2 (UniProt P17858) 0.056, PFN1 (UniProt P07737) 0.01, PCK2 (UniProt Q16822) 0.04, PFKFB2 (UniProt O60825) 0.002, PCBP2 isoform 3 (UniProt Q15366) -0.022, PDXP (UniProt Q96GD0) 0.024, PCBD1 (UniProt P61457) 0.01, PDCD4 (UniProt Q53EL6) 0.008, PARP2 (UniProt Q9UGN5) -0.145, PCGF5 (UniProt Q86SE9) -0.002, PATL1 (UniProt Q86TB9) -0.029, PBDC1 (UniProt Q9BVG4) 0.009, PET100 (UniProt P0DJ07) -0.12, PDIA3 (UniProt H7BZJ3) 0.082, PDK1 (UniProt Q15118) 0.276, PECAM1 (UniProt P16284) 0.067, PCBP2 (UniProt H3BRU6) -0.096, PFKP (UniProt Q01813) 0.031, PCNA (UniProt P12004) -0.011, PARP9 (UniProt Q8IXQ6) -0.018, PDIA4 (UniProt P13667) 0.007, PFKFB4 (UniProt Q16877) 0.067, PDLIM4 (UniProt P50479) 0.01, PCBP1 (UniProt Q15365) 0.002, PDHB (UniProt P11177) 0.011, PARS2 (UniProt Q7L3T8) 0.018, PDS5A (UniProt Q29RF7) 0.001, PEX16 isoform 2 (UniProt Q9Y5Y5) -0.114, PARN (UniProt O95453) 0.032, PDCD2 (UniProt Q16342) -0.007, PDIA6 isoform 2 (UniProt Q15084) -0.005, PARP1 (UniProt P09874) 0.018, PEF1 (UniProt Q9UBV8) 0.056

From the supplement of paper PMC10849652
